# PubChem BioAssay AID1487 (National Center for Advancing Translational Sciences (NCATS), 2009)
# Some of the results follow. Shown are side measurements of this screen, not its main read-out; they come without a call. Compounds called inactive in the main read-out are mostly missing here. Potencies come from curve fits of mixed quality, noted in brackets.
# Test: qHTS Assay for Modulators of Lamin A Splicing
# Settings: HeLa LMNA splicing GFP/RFP minigene ratio, 48 h
# Procedure, shortened: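 Read-out is the ratio of GFP to DsRed2 object intensity, acquired by 488 nm laser-scanning cytometry on HeLa lamin A-EGFP minigene reporter cells. Compound incubation 48 hrs at 37 °C in Opti-MEM with 2% FBS; DMSO 0.5% final.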
# [1] = measured here: GFP splicing reporter channel
# [2] = measured here: RFP viability control channel
SMILES,AC50 [1],AC50 [2]
CC1CCCCN1S(=O)(=O)c1ccc(S(=O)(=O)NCCc2ccncc2)cc1 (stereo not given),"35.5 µM [rising, single point]","35.5 µM [rising, single point]"
Cn1c(=O)c2c(SCC(=O)N3CCc4ccccc43)nc(-c3ccc(Cl)cc3)nc2n(C)c1=O,"0.0251 µM [rising, full curve, poor fit]",
O=c1[nH]c2ccccc2n1CCCN1CCN(C(c2ccccc2)c2ccccc2)CC1,"20 µM [rising, partial curve, poor fit]","22.4 µM [rising, partial curve]"
O=S(=O)(c1ccccc1)c1ccccc1/C=N\O,"35.5 µM [rising, single point]",
CC(C)=C1SC(N2CCN(c3cccc(Cl)c3)CC2)=NC1=O,,"11.2 µM [rising, single point]"
CC(O)c1c(OCc2ccccc2)ncnc1OCc1ccccc1 (stereo not given),,"6.31 µM [rising, full curve, poor fit]"
COc1cccc(-c2cncnc2NCc2cnc(C)cn2)c1,"7.94 µM [falling, partial curve]","8.91 µM [falling, partial curve]"
N#Cc1c(NC(=S)NC(=O)C2CCCC2)sc2c1CCCCC2,,"12.6 µM [rising, partial curve]"
CCCCn1ccnc1C(=O)c1cc(S(=O)(=O)N2CCOCC2)ccc1C,"11.2 µM [rising, partial curve, poor fit]","10 µM [rising, partial curve]"
Cc1ccc2c(c1)cc(CN(Cc1ccco1)C(=O)N1CCOCC1)c1nnnn12,"0.02 µM [falling, full curve, poor fit]",
CCC(=O)Nc1ccc(C(=O)NNC(=O)COc2cc(C)ccc2C)cc1,,"12.6 µM [rising, single point]"
CN(C)c1ccc(NC(=O)C2CCCN(S(=O)(=O)c3ccccc3)C2)cc1 (stereo not given),"0.398 µM [falling, full curve, poor fit]","0.631 µM [falling, full curve, poor fit]"
COc1ccc(CCNC(=S)N2CCC(Cc3ccccc3)CC2)cc1OC,,"7.94 µM [rising, partial curve]"
CCOC(=O)c1ccc(NS(=O)(=O)c2ccc3c(c2)oc(=O)n3C)cc1,"20 µM [rising, partial curve]","25.1 µM [rising, partial curve]"
O=C(O)Cc1cn(Cc2cccc(Cl)c2)c2ccccc12,,"14.1 µM [falling, single point]"
COc1ccccc1NC(=S)N/N=C/c1ccc(O)cc1,"25.1 µM [falling, single point]","14.1 µM [falling, single point]"
O=C(NCCc1ccccc1)C(=Cc1ccc(C(=O)O)cc1)C(=O)NCCc1ccccc1,,"35.5 µM [rising, single point]"
Cc1ccc(-c2cc(C(F)F)nc(NCc3cccnc3)n2)cc1,"10 µM [rising, single point]","17.8 µM [rising, single point]"

SMILES,AC50 [1],AC50 [2]
Cc1ccc(OCC(=O)Nc2cccc(C(=O)OCc3cc(=O)n4c(C)csc4n3)c2)cc1,"12.6 µM [falling, single point]","12.6 µM [falling, single point]"
COCCn1c(=O)cnc2cnc(Nc3ccccc3)nc21,"12.6 µM [falling, partial curve]","17.8 µM [falling, partial curve]"
O=C(CNC(=O)OCc1ccccc1)NC1CCCCCCC1,"0.02 µM [falling, full curve, poor fit]",
CCOC(=O)N1CCN(S(=O)(=O)c2ccc(OCC)c(C)c2)CC1,,"22.4 µM [rising, single point]"
COc1ccc(N2C(=O)C3C(C2=O)C(C(=O)c2ccccc2)N2CCCC32)cc1 (stereo not given),,"35.5 µM [falling, single point]"
COc1cccc(Nc2nc(-c3sc(NC(=O)CC(C)C)nc3C)cs2)c1,,"15.8 µM [rising, single point]"
Cc1nc2c(ccc3nc(NC(=O)C(c4ccccc4)c4ccccc4)sc32)s1,,"22.4 µM [rising, partial curve]"
Cn1cccc1C(=O)Nc1nc(-c2ccccn2)cs1,"5.62 µM [falling, partial curve]","7.94 µM [falling, partial curve]"
Cc1ccc(NC(=O)C2CCCN(S(=O)(=O)c3c(C)noc3/C=C/N(C)C)C2)cc1F (stereo not given),"11.2 µM [rising, partial curve]","12.6 µM [rising, single point]"
COc1cccc(C(=O)N/N=C(/c2ccccc2)c2ccccn2)c1,,"3.98 µM [rising, full curve]"
CCCCCCCCSc1n[nH]c(N)n1,"5.62 µM [rising, partial curve, poor fit]","15.8 µM [rising, partial curve]"
COc1ccc(S(=O)(=O)N(CC(=O)Nc2ccc3c(c2)OCO3)c2ccccc2OC)cc1,,"15.8 µM [rising, single point]"
O=C(NCCN1CCOCC1)c1cc2cc([N+](=O)[O-])ccc2s1,,"2.51 µM [rising, partial curve]"
CC1=NN(c2ccc(Cl)cc2)C(=O)C1,"5.01 µM [falling, partial curve, poor fit]",
CCCCOc1ccc(NC(=O)C(=O)NCCCn2ccnc2)cc1,,"22.4 µM [rising, single point]"
COc1cccc(C2CCCN2Cc2nc(CCC(C)C)no2)c1 (stereo not given),"7.94 µM [falling, partial curve, poor fit]","1.41 µM [falling, partial curve, poor fit]"
CCOC(=O)C1=C(CC)Nc2ccccc2N=C1NC(=O)c1ccc(S(=O)(=O)N2CCCC2)cc1,,"35.5 µM [rising, single point]"
Cc1sc(NC(=O)CSc2nnc(C(C)C)n2C)c(C#N)c1C,"1.26 µM [falling, single point]",

# No new results follow: entries from further up.
SMILES,AC50 [1],AC50 [2]
CCOC(=O)N1CCN(S(=O)(=O)c2ccc(OCC)c(C)c2)CC1,,"22.4 µM [rising, single point]"
COc1ccc(N2C(=O)C3C(C2=O)C(C(=O)c2ccccc2)N2CCCC32)cc1 (stereo not given),,"35.5 µM [falling, single point]"
COc1cccc(Nc2nc(-c3sc(NC(=O)CC(C)C)nc3C)cs2)c1,,"15.8 µM [rising, single point]"
Cc1nc2c(ccc3nc(NC(=O)C(c4ccccc4)c4ccccc4)sc32)s1,,"22.4 µM [rising, partial curve]"
Cn1cccc1C(=O)Nc1nc(-c2ccccn2)cs1,"5.62 µM [falling, partial curve]","7.94 µM [falling, partial curve]"
Cc1ccc(NC(=O)C2CCCN(S(=O)(=O)c3c(C)noc3/C=C/N(C)C)C2)cc1F (stereo not given),"11.2 µM [rising, partial curve]","12.6 µM [rising, single point]"
COc1cccc(C(=O)N/N=C(/c2ccccc2)c2ccccn2)c1,,"3.98 µM [rising, full curve]"
CCCCCCCCSc1n[nH]c(N)n1,"5.62 µM [rising, partial curve, poor fit]","15.8 µM [rising, partial curve]"
COc1ccc(S(=O)(=O)N(CC(=O)Nc2ccc3c(c2)OCO3)c2ccccc2OC)cc1,,"15.8 µM [rising, single point]"
O=C(NCCN1CCOCC1)c1cc2cc([N+](=O)[O-])ccc2s1,,"2.51 µM [rising, partial curve]"
CC1=NN(c2ccc(Cl)cc2)C(=O)C1,"5.01 µM [falling, partial curve, poor fit]",
